From PubChem BioAssay AID504327 (National Center for Advancing Translational Sciences (NCATS), 2011)
Screen size: about 390,000 compounds; about 820 (0.21%) were called active. The shares of active, inactive and inconclusive entries below differ from those in the screen. The call rests on the fitted dose curve; in most records, active means well fitted inhibition curve with a large enough effect; inconclusive means small, poorly fitted or top-dose-only effect, or another doubt; inactive means no such curve, though single readings can be large or run the other way. Potencies of inconclusive entries are doubtful fits and often do not repeat.

The chains behind the UniProt entries cited, without tags or fusion partners.
UniProt Q92830, whole entry, looked up: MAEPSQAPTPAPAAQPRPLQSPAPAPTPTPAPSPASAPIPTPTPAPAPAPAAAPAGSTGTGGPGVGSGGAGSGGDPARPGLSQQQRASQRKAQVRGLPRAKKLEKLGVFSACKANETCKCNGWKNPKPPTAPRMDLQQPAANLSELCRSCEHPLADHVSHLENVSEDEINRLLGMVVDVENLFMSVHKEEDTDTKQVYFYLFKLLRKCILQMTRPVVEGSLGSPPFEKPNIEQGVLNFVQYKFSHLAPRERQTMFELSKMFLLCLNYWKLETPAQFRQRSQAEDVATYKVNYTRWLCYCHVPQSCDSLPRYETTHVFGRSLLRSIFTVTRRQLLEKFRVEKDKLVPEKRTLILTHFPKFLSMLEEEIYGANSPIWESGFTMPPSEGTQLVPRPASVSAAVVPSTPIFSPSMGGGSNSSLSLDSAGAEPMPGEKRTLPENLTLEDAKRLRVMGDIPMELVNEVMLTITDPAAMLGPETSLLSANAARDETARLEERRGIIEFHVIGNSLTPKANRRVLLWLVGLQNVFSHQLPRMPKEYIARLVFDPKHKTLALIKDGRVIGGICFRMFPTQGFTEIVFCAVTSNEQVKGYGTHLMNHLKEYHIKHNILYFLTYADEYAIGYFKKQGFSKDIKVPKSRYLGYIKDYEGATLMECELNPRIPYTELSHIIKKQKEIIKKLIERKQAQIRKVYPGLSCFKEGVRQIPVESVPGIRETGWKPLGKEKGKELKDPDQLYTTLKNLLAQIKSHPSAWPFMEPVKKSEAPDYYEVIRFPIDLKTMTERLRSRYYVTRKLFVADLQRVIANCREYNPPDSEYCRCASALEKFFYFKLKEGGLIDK

molecular target: Histone acetyltransferase KAT2A (Homo sapiens) (UniProt Q92830); assay: qHTS Assay for Inhibitors of GCN5L2; settings: GCN5L2 HAT assay, ThioGlo1 CoA-SH fluorescence; series mostly up to 58.9 µM
How it was run: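 Fluorescence readout, Ex340nm/Em540nm: ThioGlo1 (50uM final) reacts with free CoA thiol released as 20nM GCN5L2 acetylates H3(1-25) peptide (75uM) using acetyl-CoA (70uM). Compound and enzyme sat 15 min beforehand; 20 min room-temperature reaction.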
Potency means the concentration at half of the fitted maximal effect.

Row | Structure (SMILES) | Potency
1 | CCCCCOC(=O)C1=C(C)Nc2nnnn2C1c1ccc(OC)c(OC)c1OC (stereo not drawn) | inconclusive: 0.708 µM [inhibitor, single point]
2 | CCCC/C(C)=N/NC(=O)c1cn(-c2ccccc2)nc1-c1ccccc1 | inconclusive: 25.1 µM [inhibitor, single point]
3 | CCC1(C)Cc2sc3c(=O)[nH]c(=S)[nH]c3c2CO1 (stereo not drawn) | active: 25.1 µM
4 | Cc1cc(-c2nsc(=O)o2)c(S(C)(=O)=O)s1 | inconclusive: 10 µM [inhibitor, partial curve]
5 | COc1cc(-c2cc(C(=O)Nc3cc(S(=O)(=O)N4CCOCC4)ccc3C)c3ccccc3n2)cc(OC)c1OC | inconclusive: 12.6 µM [inhibitor, partial curve, poor fit]
6 | CCc1ccc(-c2cc3c(=O)n(CC(=O)NCc4ccccc4F)ncn3n2)cc1 | inconclusive: 0.794 µM [inhibitor, full curve, poor fit]
7 | CCN(CCCNC(=O)Cn1ncc2c(=O)oc3ccccc3c21)c1cccc(C)c1 | inactive
8 | Cc1cc2cc(CCNC(=O)c3ccc(S(=O)(=O)N4CCOCC4)cc3)c(=O)[nH]c2cc1C | inconclusive: 39.8 µM [inhibitor, single point]
9 | CC(C)C(=O)NC(NCC1CCCO1)C(Cl)(Cl)Cl (stereo not drawn) | inconclusive: 0.708 µM [inhibitor, single point]
10 | CC1(C)Cc2ccccc2-c2nc(NN)[nH]c(=O)c21 | inconclusive: 8.91 µM [inhibitor, single point]
11 | O=C(Cc1ccccc1)Nc1cccc(N2C(=O)C=CC2=O)c1 | inconclusive: 25.1 µM [inhibitor, partial curve]
12 | ClCc1c2ccccc2cc2ccccc12 | inconclusive: 39.8 µM [inhibitor, single point]
13 | Cc1cc(C)n(CCN(C)c2nc3nonc3nc2NC2CC2)n1 | inconclusive: 39.8 µM [inhibitor, single point]
14 | O=C(CNS(=O)(=O)c1ccc(Br)cc1)Nc1ccc2c(c1)OCCO2 | inconclusive: 0.794 µM [inhibitor, full curve, poor fit]
15 | CC(C)CC(=O)OCc1cc(=O)n2nc(C3CCCCC3)sc2n1 | inactive
16 | COc1ccc(CCNC(=O)c2c(C)oc3ncn(CC(C)C)c(=O)c23)c(OC)c1 | inactive
17 | Cc1cc(C(=O)O)ccc1-c1ccc(/C=C2\NC(=O)N(Cc3ccccc3Cl)C2=O)o1 | inconclusive: 14.1 µM [inhibitor, partial curve]
18 | N=C1CCC(=N)c2c1c(O)c1ccccc1c2O | inconclusive: 39.8 µM [inhibitor, single point]

Retrieved one by one from the entries so far, two records:
Row | Structure (SMILES) | Potency
8 | Cc1cc2cc(CCNC(=O)c3ccc(S(=O)(=O)N4CCOCC4)cc3)c(=O)[nH]c2cc1C | inconclusive: 39.8 µM [inhibitor, single point]
2 | CCCC/C(C)=N/NC(=O)c1cn(-c2ccccc2)nc1-c1ccccc1 | inconclusive: 25.1 µM [inhibitor, single point]
